Experimental data as given in PubChem BioAssay (NCATS).
Inconclusive means that the source gave no clear call. Such entries were picked first, then a sample of the others. A potency beside an inconclusive call is a rough fit, not a confirmed value. The source made the active and inactive calls. Calls come from the whole dose curve; as a rule, active = well fitted curve in the direction sought with a large enough effect; inconclusive = small, poorly fitted or top-dose-only effect, or another doubt; inactive = no such curve, though single readings can be large; an effect the other way counts as inactive or inconclusive.

What was measured:
[1] = Quantitative highthroughput screen to assess conditional lethalithy of NOMO1 cells grown in RPMI1640 with untreated serum (RPMI+s) (AID 1963876); conditions: NOMO1 AML cells in RPMI+serum, CellTiter-Glo viability, 48 h; viability: at 45.8 µM (top of the series); note: nearly all actives have a fitted effect of over 35% in size
How it was run: (§1)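 Each medium arm—HPLM with 10% dialyzed FBS, or RPMI1640 with 5 mM glucose and 10% untreated or dialyzed FBS—was screened against an 11-point, 3-fold compound titration for 48 h at 37 °C, with CellTiter-Glo luminescence as endpoint.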

[2] = Quantitative highthroughput screen to assess conditional lethalithy of NOMO1 cells grown in RPMI1640 with dialyzed fetal bovine serum (RPMI+ds) (AID 1963877); conditions: NOMO1 in RPMI+dialyzed FBS viability, ATP luminescence, 48 h; series mostly up to 45.8 µM; note: nearly all actives have a fitted effect of over 30% in size
How it was run: as §1

[3] = Quantitative highthroughput screen to assess conditional lethalithy of NOMO1 cells grown in Human Plasma-Like Medium with dialyzed fetal bovine serum (HPLM+ds) (AID 1963878); conditions: NOMO1 AML cells in HPLM+ds, CellTiter-Glo viability, 48 h; viability: at 45.8 µM (top of the series); note: nearly all actives have a fitted effect of over 35% in size
How it was run: as §1

[4] = Quantitative highthroughput screen to assess conditional lethalithy of P12 Ichikawa cells grown in Human Plasma-Like Medium with dialyzed fetal bovine serum (HPLM+ds) (AID 1963879); conditions: ATP luminescence, 48 h; Potency: viability; series mostly up to 45.8 µM; note: nearly all actives have a fitted effect of over 35% in size
How it was run: as §1

[5] = Quantitative highthroughput screen to assess conditional lethalithy of P12 Ichikawa cells grown in RPMI1640 with dialyzed fetal bovine serum (RPMI+ds) (AID 1963880); conditions: ATP luminescence, 48 h; Potency: P12-Ichikawa viability; series mostly up to 45.8 µM; note: nearly all actives have a fitted effect of over 35% in size
How it was run: as §1

[6] = Quantitative highthroughput screen to assess conditional lethalithy of P12 Ichikawa cells grown in RPMI1640 with untreated serum (RPMI+s) (AID 1963881); conditions: ATP luminescence, 48 h; Potency: viability; series mostly up to 45.8 µM; note: nearly all actives have a fitted effect of over 35% in size
How it was run: as §1

[7] = Quantitative highthroughput screen to assess conditional lethalithy of SEM cells grown in RPMI1640 with dialyzed fetal bovine serum (RPMI+ds) (AID 1963884); conditions: SEM B-ALL cells, RPMI+dialyzed FBS, CellTiter-Glo viability, 48 h; viability: at 45.8 µM (top of the series); note: nearly all actives have a fitted effect of over 35% in size
How it was run: as §1

[8] = Quantitative highthroughput screen to assess conditional lethalithy of SEM cells grown in Human Plasma-Like Medium with dialyzed fetal bovine serum (HPLM+ds) (AID 1963882); conditions: SEM B-ALL cells in HPLM+ds, CellTiter-Glo viability, 48 h; series mostly up to 45.8 µM; note: nearly all actives have a fitted effect of over 35% in size
How it was run: as §1

[9] = Quantitative highthroughput screen to assess conditional lethalithy of SEM cells grown in RPMI1640 with unreated serum (RPMI+s) (AID 1963883); conditions: SEM B-ALL cells, CellTiter-Glo viability, 48 h; viability: at 45.8 µM (top of the series); note: nearly all actives have a fitted effect of over 35% in size
How it was run: as §1

[10] = Cellular viability qHTS for adrenocortical cancer (ACC) cell line NCI-H295R (AID 1963990); conditions: CellTiter-Glo ATP luminescence, 48 h; series mostly up to 46.1 µM; note: nearly all actives have a fitted effect of over 60% in size
How it was run: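 IC50 and maximal efficacy derive from four-parameter logistic modelling of titration curves, with reads scaled between DMSO-only wells (0%) and doxorubicin hydrochloride (100% inhibition). Compounds spanned up to 46 uM over 48 h.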

[11] = Cellular viability qHTS for adrenocortical cancer (ACC) cell line SW-13 (AID 1963989); conditions: SW-13 ACC cells viability, CellTiter-Glo, 48 h; activity (max response): hits give low values; note: nearly all actives have a fitted effect of over 65% in size
How it was run: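 Luminescent ATP read-out (CellTiter-Glo, 20 min at room temperature) measured metabolically competent SW-13 cells after 48 h compound treatment. Final concentrations spanned up to 46 uM; bortezomib served as positive control.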
Potency is the fitted concentration of half-maximal effect.

SMILES	Potency [1]	Potency [2]	Potency [3]	Potency [4]	Potency [5]	Potency [6]	Potency [7]	Potency [8]	Potency [9]	Potency [10]	Potency [11]
Cc1ccc(C(N)=O)cc1Nc1nccc(-c2cn(C(C)C)c3cnccc23)n1	inconclusive: 33.2 µM [cytotoxic, single point]	inconclusive: 33.2 µM [cytotoxic, single point]	inconclusive: 33.2 µM [cytotoxic, single point]	inconclusive: 26.4 µM [cytotoxic, single point]	inconclusive: 18.7 µM [cytotoxic, partial curve]	inconclusive: 29.6 µM [cytotoxic, single point]	active: 2.09 µM				
Cc1cn(-c2cc(NC(=O)c3ccc(C)c(Nc4nccc(-c5cccnc5)n4)c3)cc(C(F)(F)F)c2)cn1	active: 0.935 µM	inconclusive: 1.66 µM [cytotoxic, full curve]	inconclusive: 0.264 µM [cytotoxic, full curve, poor fit]	active: 0.935 µM			inconclusive: 0.935 µM [cytotoxic, full curve]	inconclusive: 1.18 µM [cytotoxic, full curve]	inconclusive: 1.05 µM [cytotoxic, full curve]	inactive	
COCCCCC(=NOCCN)c1ccc(C(F)(F)F)cc1	inconclusive: 33.2 µM [cytotoxic, single point]	inconclusive: 33.2 µM [cytotoxic, single point]	active: 18.7 µM		inconclusive: 37.2 µM [cytotoxic, partial curve, poor fit]		inconclusive: 37.2 µM [cytotoxic, single point]	inconclusive: 33.2 µM [cytotoxic, single point]	inconclusive: 26.4 µM [cytotoxic, single point]		
Cc1nnc(C(C)C)n1C1C[C@H]2CC[C@@H](C1)N2CC[C@H](NC(=O)C1CCC(F)(F)CC1)c1ccccc1 (stereo partly drawn)	inconclusive: 33.2 µM [cytotoxic, single point]	inconclusive: 18.7 µM [cytotoxic, partial curve]	inconclusive: 20.9 µM [cytotoxic, partial curve]			inconclusive: 23.5 µM [cytotoxic, single point]	inconclusive: 11.8 µM [cytotoxic, full curve]	inconclusive: 11.8 µM [cytotoxic, full curve]	inconclusive: 10.5 µM [cytotoxic, full curve]		
Cc1cc(Nc2cc(N3CCN(C)CC3)nc(Sc3ccc(NC(=O)C4CC4)cc3)n2)n[nH]1	inconclusive: 0.332 µM [cytotoxic, full curve]	inconclusive: 0.264 µM [cytotoxic, full curve]	inconclusive: 1.18 µM [cytotoxic, full curve]		inconclusive: 0.296 µM [cytotoxic, full curve]	active: 0.296 µM			active: 0.372 µM	active: 15.8 µM	inconclusive: 28.2 µM [cytotoxic, single point]
CC(C)N(CC[C@H](c1ccccc1)c1cc(CO)ccc1O)C(C)C	inconclusive: 33.2 µM [cytotoxic, single point]	inconclusive: 23.5 µM [cytotoxic, single point]	inconclusive: 29.6 µM [cytotoxic, single point]		inactive				inactive		
Cc1cc2c(F)c(Oc3ncnn4cc(OC[C@@H](C)O)c(C)c34)ccc2[nH]1	inactive	inactive	inactive		inconclusive: 26.4 µM [cytotoxic, partial curve]			inconclusive: 9.35 µM [cytotoxic, partial curve]	inconclusive: 5.9 µM [cytotoxic, full curve]		inconclusive: 8.91 µM [cytotoxic, full curve, poor fit]
Cc1nc(Nc2ncc(C(=O)Nc3c(C)cccc3Cl)s2)cc(N2CCN(CCO)CC2)n1	inconclusive: 13.2 µM [cytotoxic, partial curve, poor fit]	inconclusive: 3.32 µM [cytotoxic, full curve, poor fit]	inconclusive: 4.69 µM [cytotoxic, partial curve, poor fit]		inconclusive: 2.96 µM [cytotoxic, full curve]		inconclusive: 3.32 µM [cytotoxic, full curve]	inconclusive: 5.26 µM [cytotoxic, full curve]	inconclusive: 8.33 µM [cytotoxic, full curve]		
O=c1[nH]c(=O)n([C@H]2C[C@@H](O)[C@@H](CO)O2)cc1C(F)(F)F	inconclusive: 18.7 µM [cytotoxic, partial curve]	inconclusive: 6.62 µM [cytotoxic, full curve]	inconclusive: 2.96 µM [cytotoxic, partial curve]			active: 3.72 µM		inconclusive: 1.87 µM [cytotoxic, full curve]			
COC(=O)C=CC(=O)OC	inconclusive: 2.09 µM [cytotoxic, full curve]	inconclusive: 2.96 µM [cytotoxic, full curve]	inconclusive: 0.526 µM [cytotoxic, full curve, poor fit]			active: 2.64 µM	active: 2.64 µM	inconclusive: 3.72 µM [cytotoxic, full curve]	active: 1.32 µM		
Cn1cnc2c(F)c(Nc3ccc(Br)cc3F)c(C(=O)NOCCO)cc21	inconclusive: 0.332 µM [cytotoxic, full curve, poor fit]	inconclusive: 0.0935 µM [cytotoxic, full curve, poor fit]	inconclusive: 0.0418 µM [cytotoxic, full curve, poor fit]				inconclusive: 6.62 µM [cytotoxic, partial curve, poor fit]	inconclusive: 13.2 µM [cytotoxic, partial curve, poor fit]	inconclusive: 14.8 µM [cytotoxic, partial curve, poor fit]		
COc1ccc2c(c1)c(C1=C(c3c[nH]c4ccccc34)C(=O)NC1=O)cn2CCCN(C)C	inactive	inactive	inconclusive: 37.2 µM [cytotoxic, single point]					inconclusive: 16.6 µM [cytotoxic, partial curve, poor fit]	inconclusive: 14.8 µM [cytotoxic, partial curve, poor fit]	inconclusive: 28.2 µM [cytotoxic, single point]	
CO[C@@H]1[C@@H](O)[C@H](O)[C@@H](n2c3c(Cl)cccc3c3c4c(c5c6cccc(Cl)c6[nH]c5c32)C(=O)NC4=O)O[C@@H]1CO	inconclusive: 0.935 µM [cytotoxic, full curve]	inconclusive: 0.935 µM [cytotoxic, full curve]	inconclusive: 0.743 µM [cytotoxic, full curve]			active: 0.235 µM			active: 0.235 µM		
CC[C@@]1(O)C[C@H](O[C@H]2C[C@H](N(C)C)[C@H](O[C@H]3C[C@H](O)[C@H](O[C@H]4CCC(=O)[C@H](C)O4)[C@H](C)O3)[C@H](C)O2)c2c(cc3c(c2O)C(=O)c2c(O)cccc2C3=O)[C@@H]1C(=O)OC	inconclusive: 0.743 µM [cytotoxic, full curve, poor fit]	inconclusive: 0.833 µM [cytotoxic, full curve, poor fit]	active: 1.18 µM		active: 16.6 µM	inconclusive: 5.9 µM [cytotoxic, partial curve]			inconclusive: 0.148 µM [cytotoxic, full curve]	active: 22.4 µM	
COc1cc2c(cc1OC)[C@@H]1Cc3ccc(OC)c(OC)c3CN1CC2	inconclusive: 33.2 µM [cytotoxic, single point]	inconclusive: 37.2 µM [cytotoxic, single point]	inconclusive: 26.4 µM [cytotoxic, single point]					inconclusive: 0.001 µM			
COc1ccc(Cc2nccc3cc(OC)c(OC)cc23)cc1OC	inconclusive: 37.2 µM [cytotoxic, single point]	inconclusive: 29.6 µM [cytotoxic, single point]	inconclusive: 37.2 µM [cytotoxic, single point]		inconclusive: 37.2 µM [cytotoxic, partial curve, poor fit]		inconclusive: 37.2 µM [cytotoxic, single point]		inconclusive: 33.2 µM [cytotoxic, single point]		
CCOC(=O)[C@H]1O[C@H]1C(=O)N[C@@H](CC(C)C)C(=O)NCCC(C)C	active: 23.5 µM	inconclusive: 37.2 µM [cytotoxic, single point]	inconclusive: 37.2 µM [cytotoxic, single point]				inactive	inactive			
C=CC[C@@H]1C=C(C)C[C@H](C)C[C@H](OC)[C@H]2O[C@@](O)(C(=O)C(=O)N3CCCC[C@H]3C(=O)O[C@H](C(C)=C[C@@H]3CC[C@H](O)[C@H](OC)C3)[C@@H](C)[C@@H](O)CC1=O)[C@@H](C)C[C@@H]2OC	inconclusive: 7.43 µM [cytotoxic, full curve, poor fit]	inconclusive: 2.64 µM [cytotoxic, partial curve, poor fit]	active: 4.18 µM			active: 6.62 µM	inconclusive: 0.935 µM [cytotoxic, full curve]	active: 3.32 µM			

Part of the list above, with bars between the fields.
SMILES | Potency [1] | Potency [2] | Potency [3] | Potency [4] | Potency [5] | Potency [6] | Potency [7] | Potency [8] | Potency [9] | Potency [10] | Potency [11]
Cc1ccc(C(N)=O)cc1Nc1nccc(-c2cn(C(C)C)c3cnccc23)n1 | inconclusive: 33.2 µM [cytotoxic, single point] | inconclusive: 33.2 µM [cytotoxic, single point] | inconclusive: 33.2 µM [cytotoxic, single point] | inconclusive: 26.4 µM [cytotoxic, single point] | inconclusive: 18.7 µM [cytotoxic, partial curve] | inconclusive: 29.6 µM [cytotoxic, single point] | active: 2.09 µM |  |  |  | 
CC(C)N(CC[C@H](c1ccccc1)c1cc(CO)ccc1O)C(C)C | inconclusive: 33.2 µM [cytotoxic, single point] | inconclusive: 23.5 µM [cytotoxic, single point] | inconclusive: 29.6 µM [cytotoxic, single point] |  | inactive |  |  |  | inactive |  | 
COc1ccc(Cc2nccc3cc(OC)c(OC)cc23)cc1OC | inconclusive: 37.2 µM [cytotoxic, single point] | inconclusive: 29.6 µM [cytotoxic, single point] | inconclusive: 37.2 µM [cytotoxic, single point] |  | inconclusive: 37.2 µM [cytotoxic, partial curve, poor fit] |  | inconclusive: 37.2 µM [cytotoxic, single point] |  | inconclusive: 33.2 µM [cytotoxic, single point] |  | 
